In PubChem BioAssay AID504648 (National Center for Advancing Translational Sciences (NCATS), 2011):
About 610 (0.16%) of roughly 390,000 compounds were called active. Inconclusive results, whose numbers are uncertain, are shown with a selection of clear calls. The call rests on the fitted dose curve; in most records, active means well fitted inhibition curve with a large enough effect; inconclusive means small, poorly fitted or top-dose-only effect, or effect the other way, or another doubt; inactive means no such curve, though single readings can be large or run the other way. Potencies of inconclusive entries are doubtful fits and often do not repeat.

Experiment: Nrf2 qHTS screen for inhibitors: counterscreen for cytotoxicity
Conditions: A549 ARE-Fluc cells, CellTiter-Fluor viability, 18-24 h; series mostly up to 46 µM
How it was run: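 A549 ARE_Fluc cells in 5% FBS OPTI-MEM were exposed to compounds in concentration-response for 18-24 h at 37 deg C. Viability was read by CellTiter-Fluor fluorescence (Ex 405/Em 525) after 30 min, before the luciferase read.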
Potency means the concentration at half of the fitted maximal effect.

Structure (SMILES) | Potency
O=C(NCc1cccnc1)c1cc(Sc2ccccc2Cl)nc2ccccc12 | inconclusive: 29.1 µM [falling, single point]
COc1cc(/C=C2\CC(C(C)(C)C)C/C(=C\c3cc(OC)c(OC)c(OC)c3)C2=O)cc(OC)c1OC (stereo not drawn) | active: 8.2 µM
COc1ccc(-c2oc(=O)c3cc(OC)c(OC)cc3c2C#CCCO)cc1 | inconclusive: 11.6 µM [falling, partial curve, poor fit]
CC(=S)/C=C1\Sc2ccccc2N1C | inconclusive: 29.1 µM [falling, single point]
COc1cccc(N2CCN(c3ncnc4c3[nH]c3ccc(F)cc34)CC2C)c1 (stereo not drawn) | active: 18.4 µM
COc1ccc(OC)c(-c2csc(NC(=O)Cc3ccc(OC)c(OC)c3)n2)c1 | inconclusive: 32.6 µM [falling, partial curve, poor fit]
COc1ccccc1CC(=O)N1CCN(c2ccccn2)CC1 | inactive
Cc1cc(/C=C(/C#N)c2nc3ccccc3[nH]2)c(C)n1-c1cc(C(=O)O)cc(C(=O)O)c1 | inconclusive: 23.1 µM [falling, single point]
Nc1ccc(N=Nc2ccc(N)cc2)cc1 | inconclusive: 23.1 µM [falling, partial curve, poor fit]
O=C(NCCNc1ccc([N+](=O)[O-])cc1)c1ccco1 | inconclusive: 20.6 µM [falling, partial curve, poor fit]
Cc1[nH]c2ccccc2c1/C=N/Nc1ccccc1[N+](=O)[O-] | inconclusive: 9.2 µM [falling, partial curve, poor fit]
c1ccc(-c2nnc(-c3ccccn3)nc2NC2CCCCC2)cc1 | inconclusive: 2.91 µM [falling, partial curve, poor fit]
C/C(=N\NC(=S)Nc1cc(S(=O)(=O)N2CCOCC2)ccc1Cl)c1ccc(N2CCOCC2)cc1 | inactive
CC(C)c1ccc(NC(=O)C(c2ccc3c(c2)OCO3)N2CCCCC2)cc1 (stereo not drawn) | inactive
O=C(Nc1ccc(Cc2ccncc2)cc1)C1CC1 | inactive
CCC(c1nnnn1C1CCCC1)N(Cc1cccs1)Cc1cc2cccc(C)c2[nH]c1=O (stereo not drawn) | inconclusive: 29.1 µM [falling, partial curve, poor fit]
CC(C)CN(CC(C)C)S(=O)(=O)c1ccc(C(=O)Nc2sc3c(c2C(N)=O)CCN(C(C)C)C3)cc1 | inactive
CCOCCc1nn2c(=O)cc(COC(=O)c3ccccc3NC(=O)CC(C)C)nc2s1 | inactive
Cc1ccccc1/C(N)=N/OC(=O)c1ccc(F)cc1 | inconclusive: 29.1 µM [falling, single point]
Cc1noc(C)c1CSc1nc2ccccc2c(=O)n1-c1ccc(F)cc1F | inactive
CCOC(=O)c1c(NC(=O)c2ccccc2N(C)S(=O)(=O)c2ccccc2)sc2c1CCCC2 | inactive
Cc1cc(=O)n2[nH]c(-c3ccc(C(C)(C)C)cc3)cc2n1 | inconclusive: 2.06 µM [falling, partial curve, poor fit]

Exported as a markdown table: 2 of the compounds above

| Structure (SMILES) | Potency |
| --- | --- |
| COc1ccc(OC)c(-c2csc(NC(=O)Cc3ccc(OC)c(OC)c3)n2)c1 | inconclusive: 32.6 µM [falling, partial curve, poor fit] |
| Cc1[nH]c2ccccc2c1/C=N/Nc1ccccc1[N+](=O)[O-] | inconclusive: 9.2 µM [falling, partial curve, poor fit] |

The listing continues:

Structure (SMILES) | Potency
COc1ccc2cnn(CCOc3ccccc3)c(=O)c2c1OC | inconclusive: 32.6 µM [activator, partial curve, poor fit]
Cc1cc(C(=O)CSc2n[nH]c(N)n2)c(C)n1-c1ccc(F)cc1 | inconclusive: 6.51 µM [falling, single point]
O=C(c1nn(Cc2ccccc2)c(=O)c2ccccc12)N1CCN(C/C=C/c2ccccc2)CC1 | inconclusive: 29.1 µM [falling, single point]
CCCC1=Nc2cc(C(=O)NCCCOCC)ccc2Sc2ccccc21 | inconclusive: 0.92 µM [falling, partial curve, poor fit]
CN(C)C(CNC(=O)C1CCN(C(=O)/C=C/c2ccccc2)CC1)c1ccccc1 (stereo not drawn) | inconclusive: 1.16 µM [activator, full curve, poor fit]
CC1(c2nnc(-c3ccncc3)o2)CC(c2ccc([N+](=O)[O-])cc2)=NO1 (stereo not drawn) | inactive
Fc1ccccc1NC(=S)Nc1ccc(Br)cc1 | inconclusive: 29.1 µM [falling, single point]
COc1cc2c(cc1OC)C1(Nc3c-2c(Cc2ccccc2)nn3-c2ccccc2)C(=O)Nc2ccccc21 (stereo not drawn) | inconclusive: 8.2 µM [falling, partial curve]
O=C(Nc1nc(-c2ccccc2)cs1)c1ccc(N2CCOCC2)c([N+](=O)[O-])c1 | inconclusive: 8.2 µM [falling, partial curve, poor fit]
c1ccc(CN2CCN(c3nc(NCc4ccco4)c4ccccc4n3)CC2)cc1 | inconclusive: 29.1 µM [falling, single point]
Cc1ccc2c(c1)-c1ccccc1S(=O)(=O)N2 | inactive
Cc1cccc(N2CCN(C(=O)c3cnn(-c4ccc(F)cc4F)c3C3CCN(C(=O)OC(C)(C)C)CC3)CC2)c1C | inconclusive: 29.1 µM [falling, single point]
COc1ccc(Nc2cc(C)nc(N3CCOCC3)n2)cc1 | inconclusive: 11.6 µM [activator, partial curve]
c1ccc(N2CC3COc4ccccc4C3=N2)cc1 (stereo not drawn) | inconclusive: 32.6 µM [activator, partial curve, poor fit]
O=[N+]([O-])C1=CC=C2C(=NC3(CCCCC3)N2O)C1=NCCO | inconclusive: 23.1 µM [falling, partial curve, poor fit]
CC(=O)N(C(C)=O)n1c(C)nc2sc3c(c2c1=O)CCCC3 | inconclusive: 32.6 µM [falling, partial curve, poor fit]
O=S(=O)(c1ccc(Cl)cc1)c1ccccn1 | inactive
COC(=O)c1ccc2c(=O)n(CCCCCC(=O)N3CCN(c4cc(C)ccc4C)CC3)c(=O)[nH]c2c1 | inconclusive: 20.6 µM [falling, single point]
COC(=O)C1=CN(C)C=C(C(=O)OC)C1c1ccccc1Cl | inconclusive: 16.4 µM [activator, partial curve]
CCC(C)Nc1ccc(NC(C)CC)cc1 (stereo not drawn) | active: 0.146 µM
CC(=O)c1ccccc1NS(=O)(=O)c1cccc2nsnc12 | inconclusive: 20.6 µM [falling, partial curve, poor fit]
